Values from PubChem BioAssay AID504808 (Drosophila RNAi Screening Center, 2011)
Purpose: 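Fly genes required to hold E2F transcription in check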 (primary screen). Cell system: Drosophila S2 cells. Reagent: long dsRNA against Drosophila genes. Read-out: 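Dual luciferase plate measurements; E2F-specific signal taken as firefly over Renilla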. Reading the numbers: E2F firefly: higher = more E2F reporter activity; Renilla normaliser: higher = more normaliser reporter signal. Hit rule: 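a knock-down counted as active when the firefly/Renilla E2F signal rose above 50%, a threshold chosen arbitrarily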.
The deposit covers about 21,000 reagents; below is a random part of those that have a named target and a result. Of all reagents, 18 (0.084%) are marked active. 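Raw counts without plate normalisation, one of two replicates; the ratio scores behind the calls were not deposited.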 Unmarked entries are inactive. Not given: the amount of reagent, the time to read-out.

gene knocked down | dsRNA | E2F firefly, rep 1 | Renilla normaliser, rep 1
eloF | DRSC15162 | 1.41e5 | 6009
Lon | DRSC11049 | 73786 | 3624
Nrd1 | DRSC19830 | 7787 | 776
CG14408 | DRSC19595 | 8455 | 848
CG14820 | DRSC10191 | 89938 | 3741
CG11857 | DRSC14411 | 1.02e5 | 6395
Sirt2 | DRSC15714 | 1.21e5 | 6790
CG11327 | DRSC02146 | 1.33e5 | 5074
CG12990 | DRSC19510 | 2.33e5 | 7953
CG10984 | DRSC09817 | 74990 | 3191
CG2258 | DRSC18222 | 7630 | 728
sli | DRSC07684 | 1.51e5 | 5346
CG9447 | DRSC05008 | 1.63e5 | 5149
ix | DRSC06325 | 82606 | 4581
rictor | DRSC20071 | 1.35e5 | 6713
CG11458 | DRSC11666 | 1.12e5 | 6490
Dcps | DRSC12299 | 73895 | 4195
CG15353 | DRSC00383 | 1.67e5 | 6388
CG34217 | DRSC05083 | 1.27e5 | 6274
Pfdn5 | DRSC16183 | 62309 | 2857
Vps28 | DRSC06168 | 3457 | 219
CG14120 | DRSC10124 | 1.30e5 | 5932
CG33270 | DRSC10584 | 56421 | 5521
Dop1R2 | DRSC13958 | 87823 | 2445
Dop1R2 | DRSC15379 | 1.23e5 | 6652
CG3907 | DRSC04432 | 1.29e5 | 5056
CG18210 (retired record) | DRSC19089 | 87489 | 2640
CG18210 (retired record) | DRSC19795 | 7786 | 744
nac | DRSC16520 | 1.23e5 | 5849
CG13407 | DRSC14583 | 1.51e5 | 7555
CG32452 | DRSC11581 | 96367 | 4001
alpha4GT2 | DRSC15905 | 1.12e5 | 6756
Eig71Ea | DRSC11148 | 1.70e5 | 7003
nsl1 | DRSC15625 | 78113 | 3309
Sdhaf3 | DRSC15020 | 94852 | 4791
CG10494 | DRSC04072 | 73903 | 3054
CG14780 | DRSC18566 | 1.13e5 | 5453
Strump | DRSC09872 | 1.45e5 | 8529
Myc | DRSC18762 | 70508 | 4203
Tsp86D | DRSC15607 | 1.54e5 | 7717
CG44251 | DRSC06856 | 93657 | 3996
CG18265 | DRSC10310 | 1.60e5 | 7218
Mal-A8 | DRSC07234 | 1.52e5 | 5275
CG11699 | DRSC19419 | 1.39e5 | 5708
CG7252 | DRSC10789 | 66119 | 3080
gskt | DRSC14056 | 80059 | 2473
CG12129 | DRSC06105 | 2739 | 215
CG30026 | DRSC05276 | 1.26e5 | 5563
CG14034 | DRSC02359 | 1.62e5 | 5788
Drice | DRSC16715 | 1776 | 928
Pex11c | DRSC14677 | 1.04e5 | 5935
Cds | DRSC10938 | 70261 | 3792
Oat | DRSC11043 | 74970 | 3765
RpS2 | DRSC03614 | 53326 | 249
rdx | DRSC14526 | 60181 | 4164
rdx | DRSC16580 | 1.13e5 | 5405
Taldo | DRSC04320 | 90670 | 3936
CG5815 | DRSC14135 | 1.13e5 | 5963
CG5171 | DRSC02823 | 89180 | 4257
TTLL6A | DRSC06618 | 1.39e5 | 5019
gem | DRSC06093 | 2663 | 243
gem | DRSC06847 | 1.45e5 | 4782
Pop4 | DRSC10955 | 93830 | 4137
l(3)neo43 | DRSC14988 | 1.07e5 | 6021
CG6282 | DRSC10616 | 80543 | 3250
CG5921 | DRSC17431 | 81405 | 2365
CG5921 | DRSC18390 | 1.21e5 | 5280
MKP-4 | DRSC19567 | 1.73e5 | 5276
Membrin | DRSC10448 | 1.12e5 | 3972
CG5122 | DRSC02816 | 1.03e5 | 4759
Fancl | DRSC14550 | 1.37e5 | 5808
Sox15 | DRSC07555 | 87283 | 4279
CG5056 | DRSC02808 | 1.52e5 | 5305
mRpL33 | DRSC18319 | 1.05e5 | 5047
Mid1 | DRSC04230 | 1.18e5 | 5378
Mid1 | DRSC04231 | 1.09e5 | 4943
Mid1 | DRSC04308 | 1.04e5 | 4794
Tb | DRSC15815 | 1.10e5 | 5603
Drgx | DRSC00278 | 1.40e5 | 4771
Drgx | DRSC00537 | 1.48e5 | 5200
CG11374 | DRSC00306 | 1.55e5 | 5641
CG17816 | DRSC15277 | 1.34e5 | 5512
CG11106 | DRSC19381 | 1.16e5 | 6003
CG9986 | DRSC16586 | 1701 | 1004

Laid out differently: results already given.
CG5921 [DRSC17431]
- E2F firefly, rep 1: 81405
- Renilla normaliser, rep 1: 2365

CG5921 [DRSC18390]
- E2F firefly, rep 1: 1.21e5
- Renilla normaliser, rep 1: 5280

MKP-4 [DRSC19567]
- E2F firefly, rep 1: 1.73e5
- Renilla normaliser, rep 1: 5276

Membrin [DRSC10448]
- E2F firefly, rep 1: 1.12e5
- Renilla normaliser, rep 1: 3972

CG5122 [DRSC02816]
- E2F firefly, rep 1: 1.03e5
- Renilla normaliser, rep 1: 4759

Fancl [DRSC14550]
- E2F firefly, rep 1: 1.37e5
- Renilla normaliser, rep 1: 5808

Sox15 [DRSC07555]
- E2F firefly, rep 1: 87283
- Renilla normaliser, rep 1: 4279

CG5056 [DRSC02808]
- E2F firefly, rep 1: 1.52e5
- Renilla normaliser, rep 1: 5305
